Test results from patent US4385060A, “Penicillins” (Beecham Group Limited, priority 1979, dated 1983).
At least one read-out could not be matched to a standard name with certainty.

Experiment: Intact ester in blood and urine after oral administration to human volunteers
Assay type: in vivo

Structure (SMILES): CC1(C)S[C@@H]2[C@H](NC(=O)C(C(=O)Oc3ccccc3)c3ccsc3)C(=O)N2[C@H]1C(=O)O (stereo partly drawn) [phenyl, α-phenyl ester of α-carboxy-3-thienylmethyl penicillin, reference compound]
- ester present in the blood stream: < 0.2 μg/m
